Measured values published in PubChem BioAssay AID504467 (National Center for Advancing Translational Sciences (NCATS), 2011).
The campaign covered roughly 330,000 compounds. About 7,700 (2.3%) were called active. Inconclusive means that the source gave no clear call. Such entries were picked first, then a sample of the others. Calls come from the whole dose curve; as a rule, active = well fitted inhibition curve with a large enough effect; inconclusive = small, poorly fitted or top-dose-only effect, or effect the other way; inactive = flat fitted curve, though single readings scatter. Potencies of inconclusive entries are doubtful fits and often do not repeat.

Experiment: qHTS screen for small molecules that inhibit ELG1-dependent DNA repair in human embryonic kidney (HEK293T) cells expressing luciferase-tagged ELG1; note: nearly all actives have a fitted effect of over 55% in size
Conditions: HEK293T ELG1-luciferase reporter, luminescence, 16 h, DNA damage induced by 5-fluorouridine; activity change, negative = inhibition: at 46.1 µM (top of the series)
In short: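 Reporter activity after DNA damage by 5-fluorouridine is monitored. Compound-treated cells incubate 16 hr at 37 °C, then ONE-Glo is added for 30 min before luminescence reading.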
% is set by controls: 0 for no effect and ±100 for the full control effect; potency is the fitted concentration of half-maximal effect.

| Structure (SMILES) | Potency | activity change, negative = inhibition |
| --- | --- | --- |
| CC(=O)N1CCN(CC(=O)Nc2ccccc2C(=O)Nc2ccccc2)CC1 | inconclusive: 3.66 µM [inhibitor, full curve] |  |
| COc1ccccc1NS(=O)(=O)c1ccc(-c2cc(C)no2)s1 | inconclusive: 20.6 µM [inhibitor, partial curve, poor fit] |  |
| O=C(COC(=O)/C=C/c1cccc(Cl)c1)Nc1c(F)cccc1F | inconclusive: 4.11 µM [inhibitor, single point] |  |
| COc1ccc(-n2nc(C(=O)NCC(=O)NC3CCCCCC3)c3ccccc3c2=O)c(OC)c1 |  | inactive: 1.17% |
| Cc1cc(C)c(S(=O)(=O)N2CCC3(CC2)OCCN3S(=O)(=O)c2cccs2)c(C)c1 | inconclusive: 18.3 µM [inhibitor, single point] |  |
| O=C(NC1CCS(=O)(=O)C1)C12CC3CC(CC(C3)C1)C2 (stereo not given) | inconclusive: 0.206 µM [activator, full curve, poor fit] |  |
| Cc1cccc(OCc2nnc(SCc3cc(=O)[nH]c4ccccc34)n2-c2ccccc2)c1 | inconclusive: 29.1 µM [inhibitor, single point] |  |
| CCS(=O)(=O)Nc1cccc(-c2nc3cccnc3s2)c1 | inconclusive: 3.66 µM [activator, single point] |  |
| O=C(c1ccc(Cl)c(S(=O)(=O)N2CCCCC2)c1)N1CCCC1 | inconclusive: 4.11 µM [inhibitor, single point] |  |
| COc1ccc(CNC(=O)C(=O)NCC2OCCCN2S(=O)(=O)c2cccs2)cc1 (stereo not given) |  | inactive: -5.29% |
| CC(=O)c1cc(-c2ccccc2)n(CC(=O)Nc2ccc(C)c(C)c2)c1C |  | inactive: -8% |
| COc1ccc(C)cc1NC(=O)c1cccc(C(=O)Nc2cc(C)ccc2OC)n1 |  | inactive: 11.9% |
| CC(=O)NS(=O)(=O)c1cccnc1Nc1cccc(Cl)c1C | inconclusive: 23.1 µM [activator, partial curve, poor fit] |  |
| COc1cc2nc(CN3CCN(S(=O)(=O)c4ccc(Cl)cc4)CC3)[nH]c(=O)c2cc1OC | inconclusive: 20.6 µM [inhibitor, partial curve] |  |
| O=C(CSc1nnc(-c2ccc(F)cc2)o1)N1CCN(C(=O)c2ccco2)CC1 | inconclusive: 23.1 µM [inhibitor, partial curve, poor fit] |  |
| O=C(N/N=C/c1cc([N+](=O)[O-])ccc1O)c1c[nH]c2ccccc12 | active: 8.2 µM |  |
| Cc1nn(-c2ccccc2)c(Cl)c1/C=N/Nc1ccc(Cl)c(C(=O)O)c1 | inconclusive: 0.146 µM [activator, full curve] |  |
| N=C1C(c2nc3ccccc3c(=O)[nH]2)=C(O)CN1c1ccccc1 | inconclusive: 4.61 µM [inhibitor, single point] |  |
| COc1cccc(-c2csc(/C(C#N)=C/Nc3cc4oc5ccccc5c4cc3OC)n2)c1 | inconclusive: 9.2 µM [activator, partial curve, poor fit] |  |
| COC(=O)c1ccc(NC(=O)C23CC4CC(C2)CC(n2cnc(Cl)n2)(C4)C3)cc1 | active: 5.8 µM |  |
| S=C(NCCCc1ccccc1)NC1CCCCC1 | inconclusive: 14.6 µM [activator, single point] |  |
| Cc1ccc(N2C(=O)C3ON(c4ccccc4)C(CC(C)C)C3C2=O)cc1 (stereo not given) | inconclusive: 4.11 µM [activator, full curve, poor fit] |  |

In another format: 2 of the compounds above.
Structure (SMILES)	Potency	activity change, negative = inhibition
CC(=O)NS(=O)(=O)c1cccnc1Nc1cccc(Cl)c1C	inconclusive: 23.1 µM [activator, partial curve, poor fit]	
N=C1C(c2nc3ccccc3c(=O)[nH]2)=C(O)CN1c1ccccc1	inconclusive: 4.61 µM [inhibitor, single point]	

Some of the entries so far, as comma-separated lines.
Structure (SMILES),Potency,"activity change, negative = inhibition"
COc1ccc(-n2nc(C(=O)NCC(=O)NC3CCCCCC3)c3ccccc3c2=O)c(OC)c1,,inactive: 1.17%
Cc1cc(C)c(S(=O)(=O)N2CCC3(CC2)OCCN3S(=O)(=O)c2cccs2)c(C)c1,"inconclusive: 18.3 µM [inhibitor, single point]",

(more compounds)

| Structure (SMILES) | Potency | activity change, negative = inhibition |
| --- | --- | --- |
| CC1=CC2=NC(=O)CC(C)(C(=O)N(CC(=O)NC3CCCC3)c3cc(C)cc(C)c3)N2C=C1 (stereo not given) |  | inactive: -3.08% |
| O=C(COc1ccccc1Cl)Nc1ccc(S(=O)(=O)Nc2ccccn2)cc1 |  | inactive: -29.1% |
| CSc1cc(-c2ccc(Cl)cc2)c(C(=O)NC(C)C)s1 | inconclusive: 2.91 µM [activator, partial curve, poor fit] |  |
| O=C(CSc1nc(C2CC2)nc2ccccc12)Nc1ccccc1 | inconclusive: 7.3 µM [inhibitor, partial curve] |  |
| COc1ccc(NC(=O)c2cc(-c3ccco3)on2)cc1OC | inconclusive: 18.3 µM [activator, single point] |  |
| CC(=O)N1c2ccc(S(=O)(=O)NCC3CCC(C(=O)N4CCC(C)CC4)CC3)cc2CC1C (stereo not given) |  | inactive: -4.28% |
| Cc1ccccc1NC(=O)C1CCCN(S(=O)(=O)c2cccc3cccnc23)C1 (stereo not given) | inconclusive: 18.4 µM [inhibitor, single point] |  |
| COc1ccc(/C=C2\SC(=S)NC2=O)cc1OS(=O)(=O)c1ccc(NC(C)=O)cc1 |  | inactive: -18.7% |
| COc1ccc(-c2[nH]ncc2CNC(C)c2ccccc2Cl)cc1F (stereo not given) |  | inactive: 5.86% |
| O=C1NC(c2ccc(Br)cc2)Nc2sc3c(c21)CCC3 (stereo not given) | inconclusive: 0.184 µM [activator, single point] |  |
| COC/C=C/C1=CC2=CC(=O)C(C)(OC(=O)c3cnc4ccccc4n3)C(=O)C2=CN1c1ccc(CO)cc1 (stereo not given) |  | inactive: -0.844% |
| O=C(Nc1cccc(S(=O)(=O)N2CCCCCC2)c1)c1cncc(Br)c1 | inconclusive: 20.6 µM [inhibitor, single point] |  |
| Cc1cc(C(C)(C)C)ccc1NC(=O)CC(C)(C)CC(=O)O | inconclusive: 20.6 µM [activator, partial curve] |  |
| O=C(c1ccc(-n2cncn2)c([N+](=O)[O-])c1)N1CCN(c2cccc(Cl)c2)CC1 | inconclusive: 3.26 µM [activator, partial curve, poor fit] |  |
| O=C(NCc1ccco1)c1cnn2c1NC(c1ccc(Br)cc1)CC2C(F)(F)F (stereo not given) | inconclusive: 23.1 µM [inhibitor, single point] |  |
| Cc1c(CN(C)C(=O)CSc2nc(-c3ccco3)cc(C(F)(F)F)n2)cnn1C | inconclusive: 25.9 µM [inhibitor, single point] |  |
| Cc1ccc(C(=O)N(CCN2CCCCC2)CC2CCCN(C3CCCC3)C2)s1 (stereo not given) | inconclusive: 20.6 µM [activator, single point] |  |
| Cc1nnc(SC(C)C(=O)Nc2ccc(Cl)cn2)n1Cc1ccccc1 (stereo not given) |  | inactive: -18.6% |
| CC(NC(=O)CSc1nc2sc3c(c2c(=O)n1-c1ccccc1)CCCC3)c1ccccc1 (stereo not given) | inconclusive: 25.9 µM [inhibitor, partial curve] |  |
| O=C(COc1ccc(Br)cc1)NCC1COc2ccccc2O1 (stereo not given) | inconclusive: 5.17 µM [activator, full curve, poor fit] |  |
| CCOC(=O)N1CCN(CC(O)COCc2ccc(OC)c(OC)c2)CC1 (stereo not given) |  | inactive: 7.12% |
| O=C(CCC(=O)Nc1ccc(Br)cc1)N/N=C/c1cc([N+](=O)[O-])ccc1O | active: 9.2 µM |  |

| Structure (SMILES) | Potency | activity change, negative = inhibition |
| --- | --- | --- |
| COc1ccc(NC(=S)NCC2CCN(c3ccc(OC)cc3)C2)cc1 (stereo not given) | inconclusive: 25.9 µM [inhibitor, single point] |  |
| O=C(Nc1ccccc1-c1ccccc1)NC1CC2CCCC(C1)N2CCc1ccccc1 (stereo not given) |  | inactive: -10.4% |
| CC1CC(C)CN(c2oc(-c3ccccc3F)nc2C#N)C1 (stereo not given) | inconclusive: 4.61 µM [inhibitor, partial curve, poor fit] |  |
| FC(F)(F)c1cc(-c2ccco2)nc(-n2cnc3ccccc32)n1 |  | inactive: 9.9% |
| Cn1c(C(=O)NCc2ccccc2)cc2oc3ccccc3c21 | inconclusive: 23.1 µM [activator, partial curve] |  |
| Cc1cc(OCc2cc(C(=O)N(C)C3CCOCC3)no2)cc(C)c1Cl | inconclusive: 7.3 µM [activator, partial curve] |  |
| CC(C)N(c1ccccc1)c1ccc(NC(=O)COC(=O)CCN2C(=O)c3cccc([N+](=O)[O-])c3C2=O)cc1 | inconclusive: 29.1 µM [activator, single point] |  |
| COCCNC(=O)c1ccc(C)cc1C | inconclusive: 20.6 µM [inhibitor, partial curve, poor fit] |  |
| Cc1ccc(S(=O)(=O)N2CCc3ccccc3C2CN2C(=O)c3ccccc3C2=O)cc1 (stereo not given) |  | inactive: -14.7% |
| CC(=O)N1CCN(C(=O)c2cc(-c3cccc4ccccc34)nc3ccccc23)CC1 | inconclusive: 29.1 µM [inhibitor, single point] |  |
| CC1=C(C(=O)OC(C)C)C(c2cccc([N+](=O)[O-])c2)n2c(cc(=O)[nH]c2=S)N1 (stereo not given) |  | inactive: 5.94% |
| CSc1ccccc1NC(=O)COc1ccc2c(c1)OCO2 | inconclusive: 25.9 µM [activator, single point] |  |
| CC(=O)N(CC(O)CO)c1c(I)c(C(=O)NCC(O)CO)c(I)c(C(=O)NCC(O)CO)c1I (stereo not given) | inconclusive: 5.01 µM [activator, single point] |  |
| Oc1ccc[n+](CCCCC[n+]2cccc(O)c2)c1 | inconclusive: 29.1 µM [activator, single point] |  |
| CC(C)c1cc(-c2cc(C(=O)NCc3ccccc3)on2)nc(NCC2CC2)n1 | inconclusive: 29.1 µM [inhibitor, single point] |  |
| CCSc1nnc(NC(=O)C(C)(C)C)s1 | inconclusive: 25.1 µM [activator, single point] |  |
| Cc1cc(SCC(=O)Nc2ccc(O)cc2)n2nc(C)c(-c3ccccc3)c2n1 | inconclusive: 25.9 µM [inhibitor, partial curve, poor fit] |  |
| O=Cc1ccc(-c2ccccc2C(=O)O)o1 |  | inactive: 3.57% |
| C/C=C\C=C\C(=O)N1CC2(CC(c3cccc(NC(=O)COc4ccc(Cl)cc4)c3)=NO2)C[C@H]1C(N)=O (stereo not given in full) | inconclusive: 14.6 µM [inhibitor, partial curve, poor fit] |  |
| CC1(C)CC(=O)C2=C(C1)OC(N)=C(C#N)C21C(=O)N(Cc2ccccc2Cl)c2ccccc21 (stereo not given) |  | inactive: -18.5% |
| O=C(C[C@H]1C[C@H](C(=O)N2CCCCC2)[C@@]2(CCc3ccccc3)c3[nH]c4ccc(Cl)cc4c3CCN2C1=O)NCCc1ccccn1 | inconclusive: 20.6 µM [inhibitor, single point] |  |
